The whole screen tested about 350,000 compounds, of which about 6,000 (1.7%) were called active. The shares of active, inactive and inconclusive entries below differ from those in the screen. Rule as the data show it: active = CPE inhibition above about 20% (passing the limit was not always enough); inconclusive = no clear call, values can overlap the other calls; tested in BHK-21 cells.
test: protection of cells from dengue 2 killing – plate reader, single concentration, primary screen (AID 651640); conditions: DENV2-infected cells, cytopathic effect rescue, at 9.99 µM, active compounds read high;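 also: 0% = median of neutral control wells and 100% = median of positive control wells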

Q: For `CN(C(=O)COC(=O)c1cc(S(=O)(=O)N(C)C)ccc1Cl)C1CCS(=O)(=O)C1` (stereo not given), which CPE inhibition is on record?
A: The CPE inhibition was inconclusive: 69%.

Q: With `O=C(COC(=O)[C@H](Cc1ccccc1)NC(=O)c1ccco1)Nc1ccccc1OC(F)F` as the compound, how does the CPE inhibition read?
A: The CPE inhibition was inconclusive: 40.7%.

Q: For `O=C(C[C@@H]1CC[C@@H]2[C@H](COC[C@H](O)CN2Cc2cc(F)cc(F)c2)O1)NCc1cccc(F)c1`, which CPE inhibition is on record?
A: Its CPE inhibition is active: 21.8%.

Q: With `Cc1ccc(S(=O)(=O)N(C)C[C@@H]2Oc3ccc(NS(C)(=O)=O)cc3C(=O)N([C@H](C)CO)C[C@@H]2C)cc1` as the compound, how does the CPE inhibition read?
A: The CPE inhibition was inactive: -2.94%.

Q: Which CPE inhibition does the source give for `COc1cccc(NC(=O)N2CC(=O)N3[C@H](CO)[C@H](c4ccc(Br)cc4)[C@@H]3C2)c1` here?
A: Its CPE inhibition is inconclusive: 25.6%.

Q: With `Cc1ccccc1C(=O)OC1CCN(C)CC1` as the compound, how does the CPE inhibition read?
A: Its CPE inhibition is inconclusive: 24.5%.

Q: With `CCC(=O)N[C@H]1CC[C@@H](CCNC(=O)Nc2ccc(F)cc2)O[C@H]1CO` as the compound, how does the CPE inhibition read?
A: The CPE inhibition was inactive: 4.6%.

Q: For `Cc1cc2nc(-c3cccc(Cl)c3)c(CC3CCCCC3)n2c(C)c1Br`, which CPE inhibition is on record?
A: Its CPE inhibition is active: 98.4%.

Q: For `COc1cccc(C(=O)Nc2ccc3c(c2)OC[C@@H](C)N(C)C[C@H](C)[C@@H](OC)CN(C)C3=O)c1`, which CPE inhibition is on record?
A: Its CPE inhibition is inactive: -4.28%.

Q: With `Cc1cc(C)c2c(NC(=O)CCl)nn(C)c2n1` as the compound, how does the CPE inhibition read?
A: The CPE inhibition was inconclusive: 23.8%.

Q: For `COc1ccc(-c2ccc3c(c2)[C@@H]2[C@@H](CCN2C(=O)C2CCOCC2)[C@@H](CO)N3C)cc1`, which CPE inhibition is on record?
A: Its CPE inhibition is active: 115%.

Q: For `COc1ccc(-c2noc(CN(C)Cc3ccccc3)n2)cc1`, which CPE inhibition is on record?
A: The CPE inhibition was inconclusive: 28.7%.

Q: Which CPE inhibition does the source give for `COc1cc(F)c(C(=O)NC(C)(C)CO)cc1OC` here?
A: The CPE inhibition was inconclusive: 29.3%.

Q: With `C[C@@H]1CN([C@@H](C)CO)C(=O)c2cc(NC(=O)Nc3cccc4ccccc34)ccc2O[C@@H](C)CCCCO[C@@H]1CN(C)C(=O)Nc1ccccc1` as the compound, how does the CPE inhibition read?
A: The CPE inhibition was inactive: -0.363%.

Q: With `Nc1ncnc2c1ncn2[C@@H]1O[C@H](CNCc2cn(CC(=O)NC3CC3)c3ccccc23)[C@@H](O)[C@H]1O` as the compound, how does the CPE inhibition read?
A: Its CPE inhibition is inactive: 2%.

Q: Which CPE inhibition does the source give for `C[C@H]1CCCCO[C@H](CN(C)C)[C@@H](C)CN([C@@H](C)CO)C(=O)c2cc(NC(=O)Nc3cccc4ccccc34)ccc2O1` here?
A: The CPE inhibition was inconclusive: 26.9%.

Q: For `O=S(=O)(c1ccccc1)N1CC[C@H]2[C@H](CO)Nc3ccc(Br)cc3[C@H]21`, which CPE inhibition is on record?
A: Its CPE inhibition is inconclusive: 45.6%.

Q: For `COc1ccc(OCC(=O)OCC(=O)NCC2CCCCC2)cc1`, which CPE inhibition is on record?
A: The CPE inhibition was inconclusive: 28.2%.

Q: With `O=C(Cc1cccc(NC(=O)C2CCCN(C(=O)C3CCC3)C2)c1)Nc1cccc(C(=O)N2CCOCC2)c1` (stereo not given) as the compound, how does the CPE inhibition read?
A: The CPE inhibition was inactive: -7.38%.

Q: For `Cc1ccc(N(CC(=O)NC2CCC(C)CC2)S(=O)(=O)c2cccnc2)cc1` (stereo not given), which CPE inhibition is on record?
A: Its CPE inhibition is inconclusive: 32.9%.

Q: Which CPE inhibition does the source give for `C[C@H](NC(=O)C[C@H]1C=C[C@H](NC(=O)CN2CCOCC2)[C@@H](CO)O1)c1ccccc1` here?
A: Its CPE inhibition is inconclusive: 39.9%.

Q: With `O=C(C[C@H]1CC[C@@H]2[C@H](COC[C@@H](O)CN2C(=O)Nc2ccccc2)O1)NC1Cc2ccccc2C1` as the compound, how does the CPE inhibition read?
A: The CPE inhibition was inactive: -19%.

Q: Which CPE inhibition does the source give for `O=C(C[C@H]1CC[C@H]2[C@@H](COC[C@@H](O)CN2C(=O)c2cccnc2)O1)NCC1CC1` here?
A: Its CPE inhibition is inconclusive: 35.6%.

Q: With `Cc1nnc(N/N=C/c2cccs2)[nH]c1=O` as the compound, how does the CPE inhibition read?
A: Its CPE inhibition is inconclusive: 37%.

Q: For `O=C(C[C@@H]1C=C[C@@H](NC(=O)C2CC2)[C@H](CO)O1)Nc1ccccc1`, which CPE inhibition is on record?
A: Its CPE inhibition is inconclusive: 42.7%.

Q: Which CPE inhibition does the source give for `O=C(NC(=S)Nc1nc(-c2cccc([N+](=O)[O-])c2)cs1)c1ccccc1Cl` here?
A: The CPE inhibition was inactive: 3.57%.

Q: With `COc1ccc(-c2ccc(/C=N/NC(=O)Cc3nnc(N)s3)o2)cc1Cl` as the compound, how does the CPE inhibition read?
A: The CPE inhibition was inactive: 2.53%.

Q: Which CPE inhibition does the source give for `CC(=O)c1cccc(NC(=O)c2noc3c2CCc2ccccc2-3)c1` here?
A: Its CPE inhibition is active: 21.9%.

Q: With `CCCCN(C(=O)c1cccc(S(=O)(=O)N2CCN(C)CC2)c1)c1c(N)n(CC(C)C)c(=O)[nH]c1=O` as the compound, how does the CPE inhibition read?
A: Its CPE inhibition is inconclusive: 37.4%.

Q: With `CC(NC(=O)COC(=O)C12CC3CC(CC(O)(C3)C1)C2)c1ccccc1` (stereo not given) as the compound, how does the CPE inhibition read?
A: The CPE inhibition was inactive: 9.75%.

Q: For `C[C@@H]1CCCCO[C@H](CN(C)C(=O)Nc2ccccc2)[C@H](C)CN([C@@H](C)CO)C(=O)c2cc(NC(=O)Nc3ccc(C(F)(F)F)cc3)ccc2O1`, which CPE inhibition is on record?
A: Its CPE inhibition is inconclusive: 57.4%.

Q: For `CC1(C)O[C@H]2OC([C@H](O)CON3C(=O)c4ccccc4C3=O)[C@H](O)[C@H]2O1` (stereo not given in full), which CPE inhibition is on record?
A: Its CPE inhibition is inconclusive: 67.1%.

Q: Which CPE inhibition does the source give for `O=[N+]([O-])c1ccccc1S(=O)c1ccccc1[N+](=O)[O-]` here?
A: The CPE inhibition was active: 32.4%.

Q: Which CPE inhibition does the source give for `O=C(C1CC1)N1CCCCN2[C@H](CO)[C@@H](c3ccc(C#CC4(O)CCCC4)cc3)[C@H]2C1` here?
A: The CPE inhibition was inconclusive: 25.7%.

Q: Which CPE inhibition does the source give for `NC1=NC(=O)/C(=C/c2cccc(F)c2)S1` here?
A: Its CPE inhibition is inactive: -5.29%.

Q: For `C/C=C/c1ccc([C@H]2[C@@H](CO)N[C@@H]2CNC(=O)C2CCCC2)cc1`, which CPE inhibition is on record?
A: Its CPE inhibition is inactive: -6.83%.

Q: With `Cc1ccccc1C(=O)OC(C)CN1CCN(C)CC1` (stereo not given) as the compound, how does the CPE inhibition read?
A: The CPE inhibition was inactive: -3.93%.

Q: Which CPE inhibition does the source give for `C[C@@H]1CN([C@H](C)CO)S(=O)(=O)c2ccc(C#CC3CC3)cc2O[C@@H]1CN(C)Cc1ccccc1F` here?
A: The CPE inhibition was inactive: -5.13%.

Q: Which CPE inhibition does the source give for `COc1ccc(C#Cc2cnc3c(c2)C(=O)N([C@H](C)CO)C[C@@H](C)[C@@H](CN(C)C(=O)CN(C)C)O3)cc1` here?
A: Its CPE inhibition is active: 33.2%.

Q: For `C[C@H]1CN([C@@H](C)CO)C(=O)c2cccc(NC(=O)c3ccc(-c4nccs4)cc3)c2O[C@H]1CN(C)C(=O)NC1CCCCC1`, which CPE inhibition is on record?
A: Its CPE inhibition is inconclusive: 20.5%.

Q: Which CPE inhibition does the source give for `C[C@@H]1CCCCO[C@@H](CN(C)C(=O)c2ccccc2)[C@H](C)CN([C@H](C)CO)C(=O)c2cc(NC(=O)C3CCCCC3)ccc2O1` here?
A: The CPE inhibition was inactive: 2.15%.

Q: For `CCCN(C)C[C@@H]1Oc2cc(-c3ccccc3OC)ccc2S(=O)(=O)N([C@@H](C)CO)C[C@@H]1C`, which CPE inhibition is on record?
A: The CPE inhibition was inactive: 0.952%.

Q: Which CPE inhibition does the source give for `C[C@H]1CN([C@@H](C)CO)S(=O)(=O)c2ccc(-c3ccncc3)cc2O[C@H]1CN(C)S(=O)(=O)c1ccccc1F` here?
A: Its CPE inhibition is inactive: 7.16%.

Q: With `C[C@@H]1CN([C@@H](C)CO)S(=O)(=O)c2ccc(C#CC3CCCC3)cc2O[C@@H]1CN(C)C(=O)C1CC1` as the compound, how does the CPE inhibition read?
A: Its CPE inhibition is inactive: -8.99%.

Q: With `COC(=O)C1=C(C)N(Cc2ccccc2C(F)(F)F)C(=NCc2ccc3c(c2)OCO3)NC1c1ccc(F)cc1` (stereo not given) as the compound, how does the CPE inhibition read?
A: The CPE inhibition was inactive: -3.4%.

Reference: PubChem BioAssay AID651640 (Broad Institute, 2012)
